Here are results for two substances from article PMC11001699.

Chains of the proteins cited; added tags and fusions are not shown.
UniProt O00571: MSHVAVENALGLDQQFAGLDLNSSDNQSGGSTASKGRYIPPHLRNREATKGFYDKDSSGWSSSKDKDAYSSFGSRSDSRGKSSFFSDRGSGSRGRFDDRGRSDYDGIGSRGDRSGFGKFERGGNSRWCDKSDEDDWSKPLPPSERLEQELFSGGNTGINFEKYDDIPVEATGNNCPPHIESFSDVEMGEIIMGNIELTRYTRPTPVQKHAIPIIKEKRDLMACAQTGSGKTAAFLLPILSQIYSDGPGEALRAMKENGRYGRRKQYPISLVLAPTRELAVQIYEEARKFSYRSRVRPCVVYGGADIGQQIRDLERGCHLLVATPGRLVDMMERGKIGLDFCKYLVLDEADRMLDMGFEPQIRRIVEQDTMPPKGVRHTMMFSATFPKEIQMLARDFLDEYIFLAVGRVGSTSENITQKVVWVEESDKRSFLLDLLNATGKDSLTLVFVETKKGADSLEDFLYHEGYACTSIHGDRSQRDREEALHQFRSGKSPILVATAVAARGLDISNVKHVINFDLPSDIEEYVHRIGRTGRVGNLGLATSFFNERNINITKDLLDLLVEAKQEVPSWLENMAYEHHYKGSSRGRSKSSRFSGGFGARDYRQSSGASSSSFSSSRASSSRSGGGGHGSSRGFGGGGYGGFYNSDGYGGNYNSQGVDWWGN
UniProt Q15149: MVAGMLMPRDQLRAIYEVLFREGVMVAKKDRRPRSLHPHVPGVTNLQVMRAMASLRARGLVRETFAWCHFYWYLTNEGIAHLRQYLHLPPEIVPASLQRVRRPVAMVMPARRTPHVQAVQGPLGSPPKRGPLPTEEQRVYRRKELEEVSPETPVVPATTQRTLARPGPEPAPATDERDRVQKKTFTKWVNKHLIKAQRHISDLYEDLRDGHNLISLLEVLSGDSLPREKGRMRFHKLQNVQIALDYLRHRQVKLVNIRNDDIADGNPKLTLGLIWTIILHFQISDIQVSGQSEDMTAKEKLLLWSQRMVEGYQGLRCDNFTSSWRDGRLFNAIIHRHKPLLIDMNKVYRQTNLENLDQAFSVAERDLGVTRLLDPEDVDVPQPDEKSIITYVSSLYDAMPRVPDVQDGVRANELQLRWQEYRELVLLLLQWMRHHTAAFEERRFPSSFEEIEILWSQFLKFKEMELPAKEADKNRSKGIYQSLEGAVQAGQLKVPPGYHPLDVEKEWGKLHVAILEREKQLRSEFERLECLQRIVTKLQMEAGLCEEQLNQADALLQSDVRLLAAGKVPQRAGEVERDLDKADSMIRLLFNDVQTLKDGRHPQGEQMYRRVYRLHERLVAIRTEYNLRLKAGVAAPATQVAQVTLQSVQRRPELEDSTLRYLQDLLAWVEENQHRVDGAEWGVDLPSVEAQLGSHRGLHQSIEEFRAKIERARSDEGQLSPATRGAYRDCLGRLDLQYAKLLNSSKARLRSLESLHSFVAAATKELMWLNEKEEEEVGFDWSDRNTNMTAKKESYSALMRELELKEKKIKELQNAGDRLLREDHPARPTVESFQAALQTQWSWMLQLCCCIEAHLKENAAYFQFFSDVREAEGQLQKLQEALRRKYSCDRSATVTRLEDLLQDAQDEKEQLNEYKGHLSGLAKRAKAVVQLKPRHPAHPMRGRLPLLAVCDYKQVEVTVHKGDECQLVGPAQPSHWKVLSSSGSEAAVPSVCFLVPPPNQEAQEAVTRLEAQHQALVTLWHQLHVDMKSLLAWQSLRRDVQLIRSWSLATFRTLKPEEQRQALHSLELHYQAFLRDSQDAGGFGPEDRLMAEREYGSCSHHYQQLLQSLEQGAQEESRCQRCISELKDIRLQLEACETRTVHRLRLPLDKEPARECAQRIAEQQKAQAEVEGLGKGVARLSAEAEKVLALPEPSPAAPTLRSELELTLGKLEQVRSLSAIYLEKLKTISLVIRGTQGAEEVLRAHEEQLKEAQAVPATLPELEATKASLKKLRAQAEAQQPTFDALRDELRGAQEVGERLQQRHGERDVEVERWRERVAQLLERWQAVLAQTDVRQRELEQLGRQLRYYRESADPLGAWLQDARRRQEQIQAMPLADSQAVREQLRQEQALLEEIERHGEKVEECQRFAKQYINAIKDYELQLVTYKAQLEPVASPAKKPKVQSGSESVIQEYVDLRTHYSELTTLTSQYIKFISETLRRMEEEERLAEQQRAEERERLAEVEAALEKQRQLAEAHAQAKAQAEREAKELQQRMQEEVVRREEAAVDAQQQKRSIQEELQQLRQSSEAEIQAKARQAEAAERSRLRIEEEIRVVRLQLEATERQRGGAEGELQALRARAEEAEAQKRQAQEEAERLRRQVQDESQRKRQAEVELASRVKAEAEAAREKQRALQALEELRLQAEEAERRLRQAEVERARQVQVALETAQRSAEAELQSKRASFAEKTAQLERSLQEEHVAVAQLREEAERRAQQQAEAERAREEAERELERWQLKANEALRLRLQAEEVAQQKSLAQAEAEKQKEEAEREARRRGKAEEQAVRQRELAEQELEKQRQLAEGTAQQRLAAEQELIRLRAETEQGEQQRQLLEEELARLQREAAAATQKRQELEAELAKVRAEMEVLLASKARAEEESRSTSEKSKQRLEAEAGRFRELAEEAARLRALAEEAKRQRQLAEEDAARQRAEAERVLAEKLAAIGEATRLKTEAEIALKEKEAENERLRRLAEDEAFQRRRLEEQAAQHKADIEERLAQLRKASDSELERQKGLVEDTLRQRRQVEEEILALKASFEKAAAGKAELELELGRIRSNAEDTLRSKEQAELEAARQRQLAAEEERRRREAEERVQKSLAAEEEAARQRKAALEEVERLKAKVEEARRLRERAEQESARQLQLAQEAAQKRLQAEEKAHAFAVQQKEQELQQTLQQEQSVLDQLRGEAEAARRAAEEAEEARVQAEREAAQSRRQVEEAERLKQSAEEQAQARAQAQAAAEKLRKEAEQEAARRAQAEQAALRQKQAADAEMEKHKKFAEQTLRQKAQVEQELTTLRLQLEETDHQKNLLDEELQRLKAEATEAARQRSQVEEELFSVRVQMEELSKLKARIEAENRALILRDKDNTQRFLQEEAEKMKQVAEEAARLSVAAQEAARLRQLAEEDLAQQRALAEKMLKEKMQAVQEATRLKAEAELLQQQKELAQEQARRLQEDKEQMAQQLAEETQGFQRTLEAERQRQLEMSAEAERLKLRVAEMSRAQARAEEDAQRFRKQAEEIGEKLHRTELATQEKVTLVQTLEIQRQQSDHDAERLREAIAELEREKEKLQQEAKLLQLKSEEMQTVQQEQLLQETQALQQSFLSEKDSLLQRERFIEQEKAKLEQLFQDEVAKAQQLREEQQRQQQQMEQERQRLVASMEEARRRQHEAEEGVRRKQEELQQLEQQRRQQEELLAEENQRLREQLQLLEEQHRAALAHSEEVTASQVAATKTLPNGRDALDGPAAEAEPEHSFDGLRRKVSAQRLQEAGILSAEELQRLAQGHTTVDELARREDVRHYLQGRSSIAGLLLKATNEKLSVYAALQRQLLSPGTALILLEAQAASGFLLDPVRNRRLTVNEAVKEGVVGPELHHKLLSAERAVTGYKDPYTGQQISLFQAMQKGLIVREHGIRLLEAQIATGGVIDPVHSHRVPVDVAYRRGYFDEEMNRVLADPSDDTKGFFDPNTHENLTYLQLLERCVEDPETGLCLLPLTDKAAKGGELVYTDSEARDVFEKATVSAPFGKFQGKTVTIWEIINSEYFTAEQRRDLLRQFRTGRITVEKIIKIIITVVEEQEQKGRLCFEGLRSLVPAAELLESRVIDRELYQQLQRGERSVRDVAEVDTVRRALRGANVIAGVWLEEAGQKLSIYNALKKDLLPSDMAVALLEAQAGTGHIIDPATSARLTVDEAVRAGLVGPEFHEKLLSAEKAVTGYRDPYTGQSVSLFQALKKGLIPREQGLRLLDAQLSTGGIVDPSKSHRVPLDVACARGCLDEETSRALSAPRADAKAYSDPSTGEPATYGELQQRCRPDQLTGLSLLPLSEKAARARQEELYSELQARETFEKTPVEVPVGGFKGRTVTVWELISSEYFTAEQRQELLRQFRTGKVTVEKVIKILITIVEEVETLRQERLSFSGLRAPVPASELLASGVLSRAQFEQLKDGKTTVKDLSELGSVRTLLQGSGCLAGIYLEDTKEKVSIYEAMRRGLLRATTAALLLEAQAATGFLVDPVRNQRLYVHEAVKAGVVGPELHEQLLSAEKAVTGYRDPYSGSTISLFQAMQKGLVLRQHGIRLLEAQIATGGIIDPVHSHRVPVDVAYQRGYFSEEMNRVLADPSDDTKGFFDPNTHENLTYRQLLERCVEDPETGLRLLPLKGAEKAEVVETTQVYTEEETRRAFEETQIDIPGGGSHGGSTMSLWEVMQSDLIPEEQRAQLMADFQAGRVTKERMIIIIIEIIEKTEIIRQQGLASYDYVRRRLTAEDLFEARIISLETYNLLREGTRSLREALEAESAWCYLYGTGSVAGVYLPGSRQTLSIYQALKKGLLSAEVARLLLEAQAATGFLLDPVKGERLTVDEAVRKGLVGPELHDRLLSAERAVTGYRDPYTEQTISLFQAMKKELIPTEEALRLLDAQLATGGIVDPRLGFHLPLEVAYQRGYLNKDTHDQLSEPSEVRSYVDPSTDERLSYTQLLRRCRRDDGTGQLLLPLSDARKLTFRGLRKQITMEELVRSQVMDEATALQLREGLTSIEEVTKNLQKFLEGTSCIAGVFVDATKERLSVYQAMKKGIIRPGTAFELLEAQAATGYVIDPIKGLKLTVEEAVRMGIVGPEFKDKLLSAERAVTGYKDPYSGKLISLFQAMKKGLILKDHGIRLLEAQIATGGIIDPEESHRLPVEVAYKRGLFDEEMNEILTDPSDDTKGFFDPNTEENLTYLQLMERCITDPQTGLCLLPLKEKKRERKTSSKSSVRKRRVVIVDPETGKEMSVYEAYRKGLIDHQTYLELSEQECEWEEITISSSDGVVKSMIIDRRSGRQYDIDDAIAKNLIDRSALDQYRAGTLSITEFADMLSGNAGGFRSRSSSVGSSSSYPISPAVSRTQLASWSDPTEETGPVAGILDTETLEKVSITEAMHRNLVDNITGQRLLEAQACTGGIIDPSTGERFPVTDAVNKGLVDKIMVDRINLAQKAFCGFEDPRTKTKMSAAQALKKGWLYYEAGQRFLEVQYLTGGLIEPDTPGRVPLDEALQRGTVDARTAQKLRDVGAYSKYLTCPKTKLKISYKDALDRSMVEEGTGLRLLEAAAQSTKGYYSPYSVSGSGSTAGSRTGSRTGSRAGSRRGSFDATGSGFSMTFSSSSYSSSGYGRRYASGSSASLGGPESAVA

This assay concerns the target T1, GST-Rhes (Ras homolog enriched in the striatum) (not stated (rat or human cDNA cloned)) (UniProt Q96D21).
T1 sequence: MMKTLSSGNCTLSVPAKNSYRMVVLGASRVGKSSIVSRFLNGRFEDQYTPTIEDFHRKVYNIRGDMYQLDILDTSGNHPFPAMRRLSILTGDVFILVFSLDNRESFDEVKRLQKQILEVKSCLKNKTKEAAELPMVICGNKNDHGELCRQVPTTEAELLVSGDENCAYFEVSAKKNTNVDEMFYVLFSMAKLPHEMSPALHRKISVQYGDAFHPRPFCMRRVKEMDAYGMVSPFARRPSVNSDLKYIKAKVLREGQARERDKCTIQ
Put plainly: affinity purification with mass spectrometry; GST-Rhes + mSUMO3 against GST + mSUMO3 (control) affinity purified on glutathione beads from HEK293 lysates; LC-MS/MS in biological triplicate.

Results are given in words; binding and its absence hold for the method and conditions named. In cells and extracts the contact can be indirect. These calls come from enrichment with a bait or labelling near it, and not all partners need be listed. Sequences can lack the tags named with a protein.

Turning to DDX3X (from UniProt O00571 1-662), the binding result was “binds”.

As to PLEC (from UniProt Q15149 1-4684), the binding entry is “binds”.
